Results as given in publication PMC11010364.
No constants are given. Whether binding was seen depends on the method and setting. In cells and extracts the contact can be indirect. Some binding calls cover weakened binding; strength is not graded here.

Target: T1, Follistatin-like 1 (FSTL1) (human (endogenous in A431)) (UniProt Q12841)
T1 sequence: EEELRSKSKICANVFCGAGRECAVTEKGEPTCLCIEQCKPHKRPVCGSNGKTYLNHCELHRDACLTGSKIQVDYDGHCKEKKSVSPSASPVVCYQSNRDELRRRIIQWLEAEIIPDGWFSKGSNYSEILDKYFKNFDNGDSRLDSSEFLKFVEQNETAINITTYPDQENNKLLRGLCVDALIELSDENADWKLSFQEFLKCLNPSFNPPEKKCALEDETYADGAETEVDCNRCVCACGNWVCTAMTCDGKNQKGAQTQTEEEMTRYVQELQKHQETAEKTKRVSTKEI
Assay: co-IP; A431 cell total protein in RIPA buffer with protease inhibitors; 2 µg antibody or IgG control, 4 °C overnight, Protein A/G agarose, three PBS washes; western blot

- binding: binds
B1: Zinc Finger E-box Binding Homeobox 1 (ZEB1) (protein, UniProt P37275 1-1124)
chain: MADGPRCKRRKQANPRRNNVTNYNTVVETNSDSDDEDKLHIVEEESVTDAADCEGVPEDDLPTDQTVLPGRSSEREGNAKNCWEDDRKEGQEILGPEAQADEAGCTVKDDECESDAENEQNHDPNVEEFLQQQDTAVIFPEAPEEDQRQGTPEASGHDENGTPDAFSQLLTCPYCDRGYKRFTSLKEHIKYRHEKNEDNFSCSLCSYTFAYRTQLERHMTSHKSGRDQRHVTQSGCNRKFKCTECGKAFKYKHHLKEHLRIHSGEKPYECPNCKKRFSHSGSYSSHISSKKCISLIPVNGRPRTGLKTSQCSSPSLSASPGSPTRPQIRQKIENKPLQEQLSVNQIKTEPVDYEFKPIVVASGINCSTPLQNGVFTGGGPLQATSSPQGMVQAVVLPTVGLVSPISINLSDIQNVLKVAVDGNVIRQVLENNQANLASKEQETINASPIQQGGHSVISAISLPLVDQDGTTKIIINYSLEQPSQLQVVPQNLKKENPVATNSCKSEKLPEDLTVKSEKDKSFEGGVNDSTCLLCDDCPGDINALPELKHYDLKQPTQPPPLPAAEAEKPESSVSSATGDGNLSPSQPPLKNLLSLLKAYYALNAQPSAEELSKIADSVNLPLDVVKKWFEKMQAGQISVQSSEPSSPEPGKVNIPAKNNDQPQSANANEPQDSTVNLQSPLKMTNSPVLPVGSTTNGSRSSTPSPSPLNLSSSRNTQGYLYTAEGAQEEPQVEPLDLSLPKQQGELLERSTITSVYQNSVYSVQEEPLNLSCAKKEPQKDSCVTDSEPVVNVIPPSANPINIAIPTVTAQLPTIVAIADQNSVPCLRALAANKQTILIPQVAYTYSTTVSPAVQEPPLKVIQPNGNQDERQDTSSEGVSNVEDQNDSDSTPPKKKMRKTENGMYACDLCDKIFQKSSSLLRHKYEHTGKRPHECGICKKAFKHKHHLIEHMRLHSGEKPYQCDKCGKRFSHSGSYSQHMNHRYSYCKREAEERDSTEQEEAGPEILSNEHVGARASPSQGDSDERESLTREEDEDSEKEEEEEDKEMEELQEEKECEKPQGDEEEEEEEEEVEEEEVEEAENEGEEAKTEGLMKDDRAESQASSLGQKVGESSEQVSEEKTNEA
